Results are given in words; binding and its absence hold for the method and conditions named. In cells and extracts the contact can be indirect. Some entries that bind do so weakly or less than the wild type.
Legend:
[1] = biological target: Flag-HPV8 E7Δ1-37 (human papillomavirus type 8) (UniProt P06430); assay: co-IP; C33A cells co-transfected with Flag-HPV8 E7 or deletion mutants and C/EBPβ; 800 µl extract precipitated with Flag M2 agarose, washed with PBS with 0.5 M NaCl, 0.1% IGEPAL CA-630, 1 mM EDTA pH 8.0; Western blot with anti-C/EBPβ
[2] = biological target: Flag-tagged HPV8 E7 (pCMV-Flag2-HPV8 E7) (human papillomavirus type 8) (UniProt P06430); assay: as above
[3] = biological target: Flag-HPV8 E7Δ79-83 (human papillomavirus type 8) (UniProt P06430); assay: as above
[4] = biological target: Flag-HPV8 E7Δ1-15 (human papillomavirus type 8) (UniProt P06430); assay: as above
[5] = biological target: GST-HPV8 E7 (in pGEX-2T) (human papillomavirus type 8) (UniProt P06430); assay: pull-down; data not shown; GST-HPV8 E7 or GST incubated with cellular extracts of C33A cells transfected with C/EBPβ and precipitated by glutathione Sepharose 4B; only the target purified
[6] = biological target: GST-C/EBPα fusion protein (UniProt P49715); assay: pull-down; GST fusion proteins incubated with in vitro translated 35S-labelled HPV8 E7 and precipitated by glutathione Sepharose 4B; SDS-PAGE and autoradiography; only the target purified
[7] = biological target: GST-C/EBPβ fusion protein (human (from the printed accession)) (UniProt P17676); assay: as above

Sequences of proteins named here, by UniProt entry; tags and fusion partners are left off. A change or cut given only in a name is not applied to a line headed by its entry.
UniProt P49715: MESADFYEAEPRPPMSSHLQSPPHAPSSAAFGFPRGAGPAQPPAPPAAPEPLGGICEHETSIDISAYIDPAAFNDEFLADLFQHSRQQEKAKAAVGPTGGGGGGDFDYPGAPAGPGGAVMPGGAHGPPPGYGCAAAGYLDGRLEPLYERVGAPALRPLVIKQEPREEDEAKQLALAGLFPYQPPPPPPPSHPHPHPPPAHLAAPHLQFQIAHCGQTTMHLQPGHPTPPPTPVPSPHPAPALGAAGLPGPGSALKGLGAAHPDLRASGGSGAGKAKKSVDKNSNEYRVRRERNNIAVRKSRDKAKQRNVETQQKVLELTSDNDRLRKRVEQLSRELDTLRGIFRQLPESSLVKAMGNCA
UniProt P17676: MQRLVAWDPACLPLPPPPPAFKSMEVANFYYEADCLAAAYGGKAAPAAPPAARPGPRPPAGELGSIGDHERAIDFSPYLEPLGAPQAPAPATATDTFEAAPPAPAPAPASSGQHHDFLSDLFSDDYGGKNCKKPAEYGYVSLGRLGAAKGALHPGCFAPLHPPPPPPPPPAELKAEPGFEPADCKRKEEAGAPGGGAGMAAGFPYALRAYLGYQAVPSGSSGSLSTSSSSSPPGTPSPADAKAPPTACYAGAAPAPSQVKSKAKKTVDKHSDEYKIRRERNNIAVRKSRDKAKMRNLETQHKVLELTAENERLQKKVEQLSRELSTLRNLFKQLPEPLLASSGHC

Measured: binding

C/EBPβ expressed from the C/EBPβ expression vector (pcDNA3.1+) in C33A cells (from UniProt P17676-1 1-345)
not listed: [6] | [7]
binds: all other assays above

HPV8 E7 protein, in vitro translated and 35S-labelled (from UniProt P06430 1-103)
binds: [6] | [7]

From PMC3406103
